Experimental data: the supplement of paper PMC10849652
The list shows a part of the results.

The chains behind the UniProt entries cited, without tags or fusion partners. Where a name states a change or a piece, a line headed by the entry shows the natural chain unless it says otherwise.
UniProt Q15052: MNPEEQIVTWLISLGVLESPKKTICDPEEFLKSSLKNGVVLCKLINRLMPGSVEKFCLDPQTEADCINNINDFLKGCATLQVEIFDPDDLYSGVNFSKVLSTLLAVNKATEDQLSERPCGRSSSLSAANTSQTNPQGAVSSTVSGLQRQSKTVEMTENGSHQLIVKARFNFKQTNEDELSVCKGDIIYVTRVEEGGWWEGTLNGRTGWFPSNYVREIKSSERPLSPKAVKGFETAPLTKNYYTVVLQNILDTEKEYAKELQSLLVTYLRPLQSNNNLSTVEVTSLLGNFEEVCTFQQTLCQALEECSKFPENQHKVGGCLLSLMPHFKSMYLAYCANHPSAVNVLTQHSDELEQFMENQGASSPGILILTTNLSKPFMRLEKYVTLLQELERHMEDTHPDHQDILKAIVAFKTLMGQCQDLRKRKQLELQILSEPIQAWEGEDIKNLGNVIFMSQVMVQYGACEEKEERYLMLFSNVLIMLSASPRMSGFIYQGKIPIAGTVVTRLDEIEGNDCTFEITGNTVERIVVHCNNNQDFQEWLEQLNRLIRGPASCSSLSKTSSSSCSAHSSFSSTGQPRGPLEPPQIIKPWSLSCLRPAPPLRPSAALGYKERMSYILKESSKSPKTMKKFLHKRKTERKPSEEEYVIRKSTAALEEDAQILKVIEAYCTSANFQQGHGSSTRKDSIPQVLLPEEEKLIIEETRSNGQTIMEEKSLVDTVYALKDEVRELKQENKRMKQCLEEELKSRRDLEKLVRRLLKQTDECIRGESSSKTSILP
UniProt P42331: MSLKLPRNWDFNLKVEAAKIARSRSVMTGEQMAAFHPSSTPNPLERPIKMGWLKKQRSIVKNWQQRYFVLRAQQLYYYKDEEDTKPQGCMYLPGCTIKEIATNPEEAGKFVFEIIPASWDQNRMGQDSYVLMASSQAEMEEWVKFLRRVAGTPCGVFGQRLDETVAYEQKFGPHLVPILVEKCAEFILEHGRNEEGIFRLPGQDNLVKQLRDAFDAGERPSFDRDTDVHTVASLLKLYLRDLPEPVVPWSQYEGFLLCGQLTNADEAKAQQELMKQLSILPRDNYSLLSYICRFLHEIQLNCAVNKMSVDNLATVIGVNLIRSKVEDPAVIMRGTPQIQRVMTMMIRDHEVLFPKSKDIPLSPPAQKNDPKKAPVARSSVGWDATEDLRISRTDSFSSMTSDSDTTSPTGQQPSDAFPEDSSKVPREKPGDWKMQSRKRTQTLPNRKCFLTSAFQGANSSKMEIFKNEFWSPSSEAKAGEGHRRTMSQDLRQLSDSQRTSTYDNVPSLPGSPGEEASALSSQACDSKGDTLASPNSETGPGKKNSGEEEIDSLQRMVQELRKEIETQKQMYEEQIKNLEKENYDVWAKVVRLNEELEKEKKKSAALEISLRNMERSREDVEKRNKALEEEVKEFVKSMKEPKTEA
UniProt Q2VPB7: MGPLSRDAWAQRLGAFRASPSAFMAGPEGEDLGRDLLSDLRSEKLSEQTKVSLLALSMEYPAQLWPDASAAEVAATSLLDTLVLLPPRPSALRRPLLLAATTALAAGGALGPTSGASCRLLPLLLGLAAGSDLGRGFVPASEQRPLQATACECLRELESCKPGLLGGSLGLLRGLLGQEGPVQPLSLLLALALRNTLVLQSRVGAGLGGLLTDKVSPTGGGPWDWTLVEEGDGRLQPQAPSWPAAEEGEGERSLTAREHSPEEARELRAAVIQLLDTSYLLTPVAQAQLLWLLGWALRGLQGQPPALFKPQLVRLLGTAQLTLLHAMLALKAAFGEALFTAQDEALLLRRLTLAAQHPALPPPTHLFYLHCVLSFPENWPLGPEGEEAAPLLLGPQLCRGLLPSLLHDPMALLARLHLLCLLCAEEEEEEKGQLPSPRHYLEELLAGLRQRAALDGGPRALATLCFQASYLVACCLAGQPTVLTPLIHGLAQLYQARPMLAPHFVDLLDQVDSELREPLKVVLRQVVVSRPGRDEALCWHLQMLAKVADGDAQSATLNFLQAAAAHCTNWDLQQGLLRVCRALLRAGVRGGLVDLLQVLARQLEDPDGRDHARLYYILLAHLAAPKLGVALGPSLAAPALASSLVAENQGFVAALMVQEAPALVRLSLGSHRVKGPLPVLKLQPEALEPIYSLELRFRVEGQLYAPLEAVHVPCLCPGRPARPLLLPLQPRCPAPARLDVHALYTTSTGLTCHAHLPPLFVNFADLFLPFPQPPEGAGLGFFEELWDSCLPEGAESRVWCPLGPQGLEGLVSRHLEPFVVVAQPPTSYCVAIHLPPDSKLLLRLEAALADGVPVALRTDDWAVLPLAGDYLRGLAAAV
UniProt Q8TDY4: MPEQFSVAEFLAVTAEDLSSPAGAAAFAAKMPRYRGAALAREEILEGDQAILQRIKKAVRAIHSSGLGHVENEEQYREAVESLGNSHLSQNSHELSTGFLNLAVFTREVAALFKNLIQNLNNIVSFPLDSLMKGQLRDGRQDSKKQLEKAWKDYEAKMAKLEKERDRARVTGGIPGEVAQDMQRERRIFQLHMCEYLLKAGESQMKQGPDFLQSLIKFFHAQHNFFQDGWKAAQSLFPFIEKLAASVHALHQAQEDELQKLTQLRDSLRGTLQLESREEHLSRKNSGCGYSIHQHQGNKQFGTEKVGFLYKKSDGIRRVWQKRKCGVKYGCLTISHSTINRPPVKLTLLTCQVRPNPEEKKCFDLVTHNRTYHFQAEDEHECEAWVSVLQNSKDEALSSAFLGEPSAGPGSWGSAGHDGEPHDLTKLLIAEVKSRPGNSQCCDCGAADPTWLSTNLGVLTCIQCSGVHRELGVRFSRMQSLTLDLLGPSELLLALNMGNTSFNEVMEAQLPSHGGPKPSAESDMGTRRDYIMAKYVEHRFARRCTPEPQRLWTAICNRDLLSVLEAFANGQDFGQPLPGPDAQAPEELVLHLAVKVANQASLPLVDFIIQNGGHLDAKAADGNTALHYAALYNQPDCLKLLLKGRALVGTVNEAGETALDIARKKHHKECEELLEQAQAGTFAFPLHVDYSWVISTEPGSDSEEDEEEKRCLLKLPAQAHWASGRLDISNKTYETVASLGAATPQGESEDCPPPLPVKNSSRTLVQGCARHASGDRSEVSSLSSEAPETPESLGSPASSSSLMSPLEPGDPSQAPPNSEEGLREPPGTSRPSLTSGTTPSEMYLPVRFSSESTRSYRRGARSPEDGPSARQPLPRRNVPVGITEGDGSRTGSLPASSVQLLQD
UniProt P07741: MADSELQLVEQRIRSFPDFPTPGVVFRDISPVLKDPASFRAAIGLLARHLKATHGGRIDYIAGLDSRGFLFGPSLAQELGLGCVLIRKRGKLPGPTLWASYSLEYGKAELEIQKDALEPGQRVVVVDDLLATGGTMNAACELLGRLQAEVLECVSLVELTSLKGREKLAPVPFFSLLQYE
UniProt O75915: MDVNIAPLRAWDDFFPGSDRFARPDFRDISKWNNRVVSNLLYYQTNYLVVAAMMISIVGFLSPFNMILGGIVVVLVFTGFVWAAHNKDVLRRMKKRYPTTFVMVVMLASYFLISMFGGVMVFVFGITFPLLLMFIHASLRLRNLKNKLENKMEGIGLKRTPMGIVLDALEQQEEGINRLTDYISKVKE
UniProt Q9BZZ5: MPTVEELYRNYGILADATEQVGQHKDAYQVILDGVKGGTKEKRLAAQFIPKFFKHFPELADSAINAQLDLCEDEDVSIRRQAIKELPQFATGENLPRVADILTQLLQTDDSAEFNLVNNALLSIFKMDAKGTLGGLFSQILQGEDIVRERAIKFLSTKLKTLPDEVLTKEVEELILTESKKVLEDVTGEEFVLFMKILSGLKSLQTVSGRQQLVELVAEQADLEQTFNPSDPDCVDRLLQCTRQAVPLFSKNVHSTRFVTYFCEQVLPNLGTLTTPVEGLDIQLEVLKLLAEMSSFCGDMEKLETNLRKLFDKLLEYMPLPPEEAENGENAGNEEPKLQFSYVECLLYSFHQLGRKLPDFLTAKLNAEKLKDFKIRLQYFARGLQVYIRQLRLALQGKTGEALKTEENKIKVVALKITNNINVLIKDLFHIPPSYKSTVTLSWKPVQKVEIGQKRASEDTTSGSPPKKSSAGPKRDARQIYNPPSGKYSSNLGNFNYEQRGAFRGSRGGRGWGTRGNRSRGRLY
UniProt Q9Y2Y0: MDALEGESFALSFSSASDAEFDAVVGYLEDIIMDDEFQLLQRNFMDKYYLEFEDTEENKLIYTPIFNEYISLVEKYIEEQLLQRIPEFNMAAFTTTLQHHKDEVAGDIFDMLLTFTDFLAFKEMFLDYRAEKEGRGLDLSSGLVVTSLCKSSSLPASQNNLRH
UniProt P02647, whole entry, looked up: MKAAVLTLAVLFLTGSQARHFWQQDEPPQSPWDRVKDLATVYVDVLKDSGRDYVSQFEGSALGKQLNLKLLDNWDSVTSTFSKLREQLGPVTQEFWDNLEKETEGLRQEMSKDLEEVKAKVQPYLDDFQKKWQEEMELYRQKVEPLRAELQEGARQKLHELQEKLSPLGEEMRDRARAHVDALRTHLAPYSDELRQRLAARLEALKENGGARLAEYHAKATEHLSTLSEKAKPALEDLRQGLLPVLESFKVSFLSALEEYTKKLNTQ
UniProt Q6ZSZ5: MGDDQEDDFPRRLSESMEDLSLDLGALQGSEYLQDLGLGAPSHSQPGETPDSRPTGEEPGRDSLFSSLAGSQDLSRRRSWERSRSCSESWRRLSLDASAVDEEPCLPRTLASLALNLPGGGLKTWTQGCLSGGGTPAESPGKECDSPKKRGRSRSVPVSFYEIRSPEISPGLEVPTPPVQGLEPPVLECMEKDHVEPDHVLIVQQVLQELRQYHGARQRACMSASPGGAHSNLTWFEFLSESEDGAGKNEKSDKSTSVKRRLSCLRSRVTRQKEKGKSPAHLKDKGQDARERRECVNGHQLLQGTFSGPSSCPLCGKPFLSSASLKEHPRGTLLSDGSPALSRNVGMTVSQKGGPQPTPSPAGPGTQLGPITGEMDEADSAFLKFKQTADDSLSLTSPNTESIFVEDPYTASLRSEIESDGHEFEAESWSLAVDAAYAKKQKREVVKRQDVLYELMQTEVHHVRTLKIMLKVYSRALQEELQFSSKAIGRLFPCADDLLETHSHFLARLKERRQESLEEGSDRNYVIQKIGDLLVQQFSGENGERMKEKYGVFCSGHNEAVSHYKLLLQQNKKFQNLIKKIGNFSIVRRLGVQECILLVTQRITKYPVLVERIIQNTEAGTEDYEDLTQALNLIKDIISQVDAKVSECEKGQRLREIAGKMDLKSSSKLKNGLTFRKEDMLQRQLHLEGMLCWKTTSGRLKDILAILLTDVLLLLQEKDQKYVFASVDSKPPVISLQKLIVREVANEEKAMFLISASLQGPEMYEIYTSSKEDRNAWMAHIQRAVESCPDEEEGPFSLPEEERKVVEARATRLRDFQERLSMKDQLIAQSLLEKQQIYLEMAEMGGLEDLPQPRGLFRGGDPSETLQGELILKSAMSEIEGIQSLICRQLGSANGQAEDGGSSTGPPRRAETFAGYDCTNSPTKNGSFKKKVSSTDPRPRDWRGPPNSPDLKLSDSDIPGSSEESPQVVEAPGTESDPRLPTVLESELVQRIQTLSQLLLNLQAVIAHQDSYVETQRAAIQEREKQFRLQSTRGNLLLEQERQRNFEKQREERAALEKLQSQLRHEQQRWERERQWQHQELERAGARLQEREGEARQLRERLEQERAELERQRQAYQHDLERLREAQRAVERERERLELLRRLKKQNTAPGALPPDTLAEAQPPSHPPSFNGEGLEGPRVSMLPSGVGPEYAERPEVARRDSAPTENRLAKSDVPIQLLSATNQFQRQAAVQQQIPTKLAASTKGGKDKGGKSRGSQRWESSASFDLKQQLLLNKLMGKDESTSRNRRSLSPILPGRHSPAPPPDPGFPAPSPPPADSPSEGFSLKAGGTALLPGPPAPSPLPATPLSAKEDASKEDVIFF
UniProt P15848: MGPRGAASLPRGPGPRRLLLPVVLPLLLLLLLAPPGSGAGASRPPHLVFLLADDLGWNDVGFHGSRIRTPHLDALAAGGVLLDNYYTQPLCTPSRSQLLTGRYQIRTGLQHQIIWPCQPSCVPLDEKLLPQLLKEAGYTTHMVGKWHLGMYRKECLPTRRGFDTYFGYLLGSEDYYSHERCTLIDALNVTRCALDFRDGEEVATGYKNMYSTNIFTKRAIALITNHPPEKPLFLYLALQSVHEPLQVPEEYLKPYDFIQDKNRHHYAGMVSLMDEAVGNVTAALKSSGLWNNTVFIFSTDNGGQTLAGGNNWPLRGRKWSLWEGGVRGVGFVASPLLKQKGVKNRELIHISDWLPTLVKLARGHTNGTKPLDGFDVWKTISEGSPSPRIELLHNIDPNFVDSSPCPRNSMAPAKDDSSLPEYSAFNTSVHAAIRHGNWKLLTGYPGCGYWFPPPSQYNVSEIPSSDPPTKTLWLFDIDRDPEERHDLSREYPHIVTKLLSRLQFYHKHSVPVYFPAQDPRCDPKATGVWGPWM
UniProt P36405: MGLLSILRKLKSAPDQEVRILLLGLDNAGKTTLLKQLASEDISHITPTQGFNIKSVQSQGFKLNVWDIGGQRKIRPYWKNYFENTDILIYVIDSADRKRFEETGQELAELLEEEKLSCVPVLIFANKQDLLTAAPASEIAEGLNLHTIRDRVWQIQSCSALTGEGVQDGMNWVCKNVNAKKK

Columns and labels:
Experiment in all cases: log2 fold change, soluble protein after heating vs DMSO (PISA); higher = thermal stabilisation; K562 lysate, 10 uM; active = over 0.2 and 3.5 SD of the protein, either way, in both replicates (recomputed)
lapatinib = compound: CS(=O)(=O)CCNCc1ccc(-c2ccc3ncnc(Nc4ccc(OCc5cccc(F)c5)c(Cl)c4)c3c2)o1 [lapatinib]
In short: (§1)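 To prepare the extract, K562 pellets were dounce-homogenised in PBS pH 7.4 with 1 mM MgCl2, giving crude material at 1 mg/mL protein. This was treated with 10 μM compound for 30 min, then heated in aliquots for 3 min over 48°C-58°C before pooling and addition of NP-40 to 0.5% at 4°C. Centrifugation at 21,000xg for 90 min left soluble protein in the supernatant, which TMTpro 16plex LC-MS/MS quantified with equalised channel sums. Results are log-two fold changes in thermal stability compared with solvent controls, from duplicates.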

pictilisib = compound: CS(=O)(=O)N1CCN(Cc2cc3nc(-c4cccc5[nH]ncc45)nc(N4CCOCC4)c3s2)CC1 [pictilisib]
In short: as §1

crizotinib = compound: C[C@@H](Oc1cc(-c2cnn(C3CCNCC3)c2)cnc1N)c1c(Cl)ccc(F)c1Cl [crizotinib]
In short: as §1

[1] = compound: C[C@H](C1=CC=C(C=C1)C(=O)NC2=C3C=CNC3=NC=C2)N
In short: as §1

duvelisib = compound: C[C@H](Nc1ncnc2nc[nH]c12)c1cc2cccc(Cl)c2c(=O)n1-c1ccccc1 [duvelisib]
In short: as §1

gandotinib = compound: Cc1cc(Nc2cc(CN3CCOCC3)c3nc(C)c(Cc4ccc(Cl)cc4F)n3n2)n[nH]1 [gandotinib]
In short: as §1

tozasertib = compound: Cc1cc(Nc2cc(N3CCN(C)CC3)nc(Sc3ccc(NC(=O)C4CC4)cc3)n2)n[nH]1 [tozasertib]
In short: as §1

doramapimod = compound: Cc1ccc(-n2nc(C(C)(C)C)cc2NC(=O)Nc2ccc(OCCN3CCOCC3)c3ccccc23)cc1 [doramapimod]
In short: as §1

bafetinib = compound: Cc1ccc(NC(=O)c2ccc(CN3CC[C@H](N(C)C)C3)c(C(F)(F)F)c2)cc1Nc1nccc(-c2cncnc2)n1 [bafetinib]
In short: as §1

[2] = compound: Cc1cccc(CC(=O)N2CCc3c2ccc(-c2cn(C)c4ncnc(N)c24)c3F)n1
In short: as §1

nilotinib = compound: Cc1cn(-c2cc(NC(=O)c3ccc(C)c(Nc4nccc(-c5cccnc5)n4)c3)cc(C(F)(F)F)c2)cn1 [nilotinib]
In short: as §1

[3] = compound: Cc1nc(Nc2n[nH]c3c2CN(C(=O)N[C@H](CN(C)C)c2ccccc2)C3(C)C)c2sccc2n1
In short: as §1

dasatinib = compound: Cc1nc(Nc2ncc(C(=O)Nc3c(C)cccc3Cl)s2)cc(N2CCN(CCO)CC2)n1 [dasatinib]
In short: as §1

[4] = compound: Cc1ncc(-c2ccnc(Nc3ccc(S(C)(=O)=O)cc3)n2)n1C(C)C
In short: as §1

[5] = compound: Cn1cc(-c2ccc3c(c2)CCN3C(=O)Cc2cccc(C(F)(F)F)c2)c2c(N)ncnc21
In short: as §1

quisinostat = compound: Cn1cc(CNCC2CCN(c3ncc(C(=O)NO)cn3)CC2)c2ccccc21 [quisinostat]
In short: as §1

tipifarnib = compound: Cn1cncc1[C@@](N)(c1ccc(Cl)cc1)c1ccc2c(c1)c(-c1cccc(Cl)c1)cc(=O)n2C [tipifarnib]
In short: as §1

[6] = compound: NC(=O)Nc1cc(-c2cccc(F)c2)sc1C(=O)N[C@H]1CCCNC1
In short: as §1

[7] = compound: NC(=O)c1cnc(N[C@@H]2CCCC[C@@H]2N)nc1Nc1cccc(-n2nccn2)c1
In short: as §1

[8] = compound: NC1(c2ccc(-c3nc4ccn5c(=O)[nH]nc5c4cc3-c3ccccc3)cc2)CCC1
In short: as §1

Measured: log2 fold change

ARHGEF6 (UniProt Q15052)
inactive: lapatinib 0.023 | pictilisib -0.008 | crizotinib -0.04 | [1] 0.004 | duvelisib -0.053 | gandotinib -0.042 | tozasertib 0.012 | doramapimod 0.018 | bafetinib 0.065 | [2] -0.004 | nilotinib -0.054 | [3] 0.018 | dasatinib -0.019 | [4] -0.116 | [5] 0.005 | quisinostat 0.009 | tipifarnib 0.134 | [6] 0.062 | [7] -0.048 | [8] 0

ARHGEF1 (UniProt M0QZR4)
inactive: lapatinib 0.006 | pictilisib -0.011 | crizotinib -0.041 | [1] -0.038 | duvelisib -0.007 | gandotinib -0.012 | tozasertib 0.029 | doramapimod 0.02 | bafetinib -0.019 | [2] 0.106 | nilotinib 0.009 | [3] -0.031 | dasatinib -0.058 | [4] -0.016 | [5] 0.022 | quisinostat -0.02 | tipifarnib 0.01 | [6] 0.015 | [7] 0.017 | [8] -0.015

ARHGAP25 isoform 4 (UniProt P42331)
inactive: lapatinib 0.011 | pictilisib -0.024 | crizotinib -0.053 | [1] -0.011 | duvelisib 0.008 | gandotinib -0.024 | tozasertib -0.006 | doramapimod -0.005 | bafetinib -0.075 | [2] 0.081 | nilotinib -0.037 | [3] 0.039 | dasatinib -0.039 | [4] 0.022 | [5] 0.008 | quisinostat -0.115 | tipifarnib -0.016 | [6] 0.017 | [7] 0.028 | [8] -0.009

Random excerpt: 2 records from the list, in no set order.
ARHGEF6 (UniProt Q15052)
inactive: lapatinib 0.023 | pictilisib -0.008 | crizotinib -0.04 | [1] 0.004 | duvelisib -0.053 | gandotinib -0.042 | tozasertib 0.012 | doramapimod 0.018 | bafetinib 0.065 | [2] -0.004 | nilotinib -0.054 | [3] 0.018 | dasatinib -0.019 | [4] -0.116 | [5] 0.005 | quisinostat 0.009 | tipifarnib 0.134 | [6] 0.062 | [7] -0.048 | [8] 0

ARHGAP25 isoform 4 (UniProt P42331)
inactive: lapatinib 0.011 | pictilisib -0.024 | crizotinib -0.053 | [1] -0.011 | duvelisib 0.008 | gandotinib -0.024 | tozasertib -0.006 | doramapimod -0.005 | bafetinib -0.075 | [2] 0.081 | nilotinib -0.037 | [3] 0.039 | dasatinib -0.039 | [4] 0.022 | [5] 0.008 | quisinostat -0.115 | tipifarnib -0.016 | [6] 0.017 | [7] 0.028 | [8] -0.009

Additional results follow.

AP5B1 (UniProt Q2VPB7)
active: [6] 0.324
inactive: lapatinib 0.095 | pictilisib -0.046 | crizotinib 0.069 | [1] 0.034 | duvelisib -0.012 | gandotinib -0.092 | tozasertib -0.028 | doramapimod 0.272 | bafetinib -0.056 | [2] 0.047 | nilotinib 0.001 | [3] -0.033 | dasatinib 0.065 | [4] -0.053 | [5] -0.072 | quisinostat -0.027 | tipifarnib -0.087 | [7] -0.023 | [8] -0.036

ASAP3 (UniProt Q8TDY4)
inactive: lapatinib -0.006 | pictilisib -0.141 | crizotinib 0.014 | [1] 0.017 | duvelisib -0.064 | gandotinib -0.032 | tozasertib -0.034 | doramapimod -0.04 | bafetinib -0.11 | [2] 0.048 | nilotinib -0.171 | [3] -0.016 | dasatinib -0.095 | [4] 0.119 | [5] 0.037 | quisinostat -0.068 | tipifarnib 0.071 | [6] 0.095 | [7] -0.015 | [8] -0.024

APRT (UniProt P07741)
inactive: lapatinib -0.022 | pictilisib -0.012 | crizotinib -0.01 | [1] -0.013 | duvelisib 0.014 | gandotinib 0.025 | tozasertib -0.008 | doramapimod -0.027 | bafetinib 0.023 | [2] -0.002 | nilotinib 0.011 | [3] -0.03 | dasatinib 0.006 | [4] 0.023 | [5] 0.007 | quisinostat 0 | tipifarnib 0.007 | [6] -0.021 | [7] 0.018 | [8] -0.002

ARL6IP5 (UniProt O75915)
inactive: lapatinib -0.069 | pictilisib -0.038 | crizotinib 0.059 | [1] 0.132 | duvelisib 0.021 | gandotinib -0.17 | tozasertib 0.023 | doramapimod -0.027 | bafetinib 0.027 | [2] -0.164 | nilotinib 0.015 | [3] -0.035 | dasatinib -0.047 | [4] -0.093 | [5] 0.036 | quisinostat 0.132 | tipifarnib 0.027 | [6] 0.03 | [7] -0.003 | [8] 0.038

ARIH2 (UniProt O95376)
inactive: lapatinib 0.057 | pictilisib 0.01 | crizotinib -0.034 | [1] 0.029 | duvelisib 0.028 | gandotinib -0.043 | tozasertib -0.001 | doramapimod 0.04 | bafetinib -0.001 | [2] -0.01 | nilotinib 0.008 | [3] -0.01 | dasatinib -0.063 | [4] -0.015 | [5] -0.04 | quisinostat 0.065 | tipifarnib 0.011 | [6] -0.056 | [7] 0.021 | [8] -0.024

API5 isoform 2 (UniProt Q9BZZ5)
inactive: lapatinib 0.016 | pictilisib 0.018 | crizotinib 0.004 | [1] 0.033 | duvelisib 0.009 | gandotinib -0.076 | tozasertib -0.09 | doramapimod 0.027 | bafetinib -0.081 | [2] -0.117 | nilotinib -0.013 | [3] -0.02 | dasatinib 0.068 | [4] -0.038 | [5] -0.002 | quisinostat 0.002 | tipifarnib -0.013 | [6] -0.019 | [7] 0.016 | [8] -0.101

ARMC8 (UniProt Q8IUR7)
inactive: lapatinib -0.025 | pictilisib -0.012 | crizotinib 0.005 | [1] -0.024 | duvelisib -0.013 | gandotinib -0.007 | tozasertib -0.001 | doramapimod -0.023 | bafetinib -0.034 | [2] -0.005 | nilotinib 0.002 | [3] 0.01 | dasatinib 0.013 | [4] -0.01 | [5] 0.006 | quisinostat -0.024 | tipifarnib 0.026 | [6] 0.021 | [7] -0.009 | [8] -0.011

ARL2BP (UniProt Q9Y2Y0)
inactive: lapatinib 0.003 | pictilisib -0.001 | crizotinib -0.103 | [1] -0.123 | duvelisib -0.048 | gandotinib -0.035 | tozasertib -0.02 | doramapimod 0.073 | bafetinib -0.035 | [2] 0.099 | nilotinib -0.067 | [3] 0.019 | dasatinib -0.067 | [4] 0.014 | [5] -0.019 | quisinostat -0.165 | tipifarnib -0.067 | [6] 0.003 | [7] -0.009 | [8] -0.044

APOA1 (UniProt P02647)
inactive: lapatinib -0.005 | pictilisib -0.053 | crizotinib -0.076 | [1] -0.072 | duvelisib 0.084 | gandotinib 0.129 | tozasertib 0.039 | doramapimod 0.009 | bafetinib 0.015 | [2] 0.035 | nilotinib 0.041 | [3] 0.052 | dasatinib -0.021 | [4] 0.091 | [5] -0.06 | quisinostat -0.084 | tipifarnib -0.125 | [6] 0.021 | [7] 0.026 | [8] 0.051

ARHGEF18 (UniProt Q6ZSZ5)
inactive: lapatinib -0.014 | pictilisib 0.011 | crizotinib -0.04 | [1] -0.084 | duvelisib 0.034 | gandotinib 0.068 | tozasertib 0.024 | doramapimod 0.061 | bafetinib -0.014 | [2] 0.098 | nilotinib -0.135 | [3] -0.001 | dasatinib 0.007 | [4] 0.084 | [5] -0.031 | quisinostat -0.12 | tipifarnib -0.061 | [6] 0.011 | [7] 0 | [8] 0.025

ARPC1B (UniProt O15143)
inactive: lapatinib 0.036 | pictilisib 0.042 | crizotinib 0.02 | [1] 0.033 | duvelisib 0.031 | gandotinib -0.017 | tozasertib -0.001 | doramapimod 0.004 | bafetinib 0.068 | [2] -0.027 | nilotinib 0.028 | [3] 0.026 | dasatinib 0.059 | [4] 0.045 | [5] 0.022 | quisinostat 0.001 | tipifarnib -0.007 | [6] -0.024 | [7] -0.036 | [8] -0.002

ARSB (UniProt P15848)
inactive: lapatinib -0.021 | pictilisib -0.096 | crizotinib 0.043 | [1] -0.091 | duvelisib 0.008 | gandotinib -0.017 | tozasertib 0.008 | doramapimod 0.058 | bafetinib 0.057 | [2] 0.041 | nilotinib 0.043 | [3] -0.052 | dasatinib 0.033 | [4] 0.118 | [5] -0.045 | quisinostat -0.019 | tipifarnib -0.002 | [6] -0.021 | [7] -0.041 | [8] -0.008

ARL3 (UniProt P36405)
inactive: lapatinib -0.024 | pictilisib -0.012 | crizotinib 0.01 | [1] 0.006 | duvelisib -0.002 | gandotinib -0.001 | tozasertib -0.022 | doramapimod 0.01 | bafetinib 0.004 | [2] -0.04 | nilotinib 0.02 | [3] -0.039 | dasatinib -0.009 | [4] -0.002 | [5] 0.014 | quisinostat 0.001 | tipifarnib 0.017 | [6] 0 | [7] 0 | [8] -0.005
